One substance from publication PMC7710275 can be followed below.

Sequences of proteins named here, by UniProt entry; tags and fusion partners are left off. A change or cut given only in a name is not applied to a line headed by its entry.
UniProt Q9H4A3: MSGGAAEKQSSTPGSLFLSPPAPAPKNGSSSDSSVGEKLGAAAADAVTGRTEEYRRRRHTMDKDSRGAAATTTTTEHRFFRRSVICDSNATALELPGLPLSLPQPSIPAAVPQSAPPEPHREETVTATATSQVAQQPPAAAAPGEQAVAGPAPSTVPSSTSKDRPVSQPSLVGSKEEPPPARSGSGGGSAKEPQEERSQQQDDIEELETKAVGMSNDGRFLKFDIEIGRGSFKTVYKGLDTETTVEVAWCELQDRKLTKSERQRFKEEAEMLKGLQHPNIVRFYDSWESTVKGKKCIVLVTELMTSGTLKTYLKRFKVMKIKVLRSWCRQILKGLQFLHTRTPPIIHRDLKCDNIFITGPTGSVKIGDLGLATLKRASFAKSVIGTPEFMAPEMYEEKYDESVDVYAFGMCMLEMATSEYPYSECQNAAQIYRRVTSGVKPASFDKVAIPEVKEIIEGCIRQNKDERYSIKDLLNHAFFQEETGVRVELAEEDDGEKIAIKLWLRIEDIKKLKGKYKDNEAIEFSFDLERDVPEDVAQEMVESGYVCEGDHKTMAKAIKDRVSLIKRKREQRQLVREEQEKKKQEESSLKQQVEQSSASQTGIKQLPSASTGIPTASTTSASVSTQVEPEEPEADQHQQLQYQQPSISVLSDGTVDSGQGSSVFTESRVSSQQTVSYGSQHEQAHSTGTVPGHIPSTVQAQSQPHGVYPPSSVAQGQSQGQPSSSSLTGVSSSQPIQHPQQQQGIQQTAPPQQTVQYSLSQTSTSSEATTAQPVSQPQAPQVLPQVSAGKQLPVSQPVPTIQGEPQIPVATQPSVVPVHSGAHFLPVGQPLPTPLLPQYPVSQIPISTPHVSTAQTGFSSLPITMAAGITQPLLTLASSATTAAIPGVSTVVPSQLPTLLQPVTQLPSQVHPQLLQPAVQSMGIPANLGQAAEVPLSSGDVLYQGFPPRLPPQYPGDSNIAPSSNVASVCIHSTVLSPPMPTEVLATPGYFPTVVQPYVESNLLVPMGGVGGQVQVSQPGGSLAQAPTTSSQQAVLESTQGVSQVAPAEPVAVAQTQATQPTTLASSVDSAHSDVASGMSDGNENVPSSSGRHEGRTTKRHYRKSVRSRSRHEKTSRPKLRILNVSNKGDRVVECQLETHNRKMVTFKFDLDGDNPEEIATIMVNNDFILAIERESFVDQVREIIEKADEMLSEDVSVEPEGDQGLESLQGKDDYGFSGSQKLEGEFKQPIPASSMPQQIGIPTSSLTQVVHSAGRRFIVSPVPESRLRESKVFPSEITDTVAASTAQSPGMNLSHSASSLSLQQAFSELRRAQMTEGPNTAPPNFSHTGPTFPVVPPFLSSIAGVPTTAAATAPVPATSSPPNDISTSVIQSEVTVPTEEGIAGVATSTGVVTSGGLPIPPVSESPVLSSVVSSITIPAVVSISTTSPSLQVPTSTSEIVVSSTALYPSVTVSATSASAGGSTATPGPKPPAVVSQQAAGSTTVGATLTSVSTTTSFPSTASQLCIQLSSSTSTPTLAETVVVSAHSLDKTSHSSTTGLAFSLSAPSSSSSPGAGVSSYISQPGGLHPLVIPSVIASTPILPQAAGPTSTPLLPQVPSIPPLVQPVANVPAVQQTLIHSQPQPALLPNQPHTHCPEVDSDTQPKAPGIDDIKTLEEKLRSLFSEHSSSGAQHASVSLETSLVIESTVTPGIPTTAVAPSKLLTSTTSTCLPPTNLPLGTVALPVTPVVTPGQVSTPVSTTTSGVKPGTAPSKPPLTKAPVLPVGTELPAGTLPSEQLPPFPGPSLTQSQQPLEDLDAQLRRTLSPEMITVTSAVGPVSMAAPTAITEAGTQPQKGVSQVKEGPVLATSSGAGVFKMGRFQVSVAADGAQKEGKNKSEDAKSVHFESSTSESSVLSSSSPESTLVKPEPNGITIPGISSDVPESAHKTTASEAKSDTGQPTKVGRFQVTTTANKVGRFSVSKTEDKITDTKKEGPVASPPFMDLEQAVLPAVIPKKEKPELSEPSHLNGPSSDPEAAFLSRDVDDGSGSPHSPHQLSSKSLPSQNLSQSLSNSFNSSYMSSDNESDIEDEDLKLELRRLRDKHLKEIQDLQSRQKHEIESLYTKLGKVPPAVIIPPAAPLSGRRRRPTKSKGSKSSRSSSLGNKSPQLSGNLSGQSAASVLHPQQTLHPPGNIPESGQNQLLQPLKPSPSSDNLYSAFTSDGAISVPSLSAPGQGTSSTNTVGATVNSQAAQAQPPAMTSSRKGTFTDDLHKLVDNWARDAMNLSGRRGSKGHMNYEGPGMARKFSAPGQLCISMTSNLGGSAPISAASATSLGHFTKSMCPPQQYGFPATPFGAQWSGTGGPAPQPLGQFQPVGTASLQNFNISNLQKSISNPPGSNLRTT
UniProt P30153: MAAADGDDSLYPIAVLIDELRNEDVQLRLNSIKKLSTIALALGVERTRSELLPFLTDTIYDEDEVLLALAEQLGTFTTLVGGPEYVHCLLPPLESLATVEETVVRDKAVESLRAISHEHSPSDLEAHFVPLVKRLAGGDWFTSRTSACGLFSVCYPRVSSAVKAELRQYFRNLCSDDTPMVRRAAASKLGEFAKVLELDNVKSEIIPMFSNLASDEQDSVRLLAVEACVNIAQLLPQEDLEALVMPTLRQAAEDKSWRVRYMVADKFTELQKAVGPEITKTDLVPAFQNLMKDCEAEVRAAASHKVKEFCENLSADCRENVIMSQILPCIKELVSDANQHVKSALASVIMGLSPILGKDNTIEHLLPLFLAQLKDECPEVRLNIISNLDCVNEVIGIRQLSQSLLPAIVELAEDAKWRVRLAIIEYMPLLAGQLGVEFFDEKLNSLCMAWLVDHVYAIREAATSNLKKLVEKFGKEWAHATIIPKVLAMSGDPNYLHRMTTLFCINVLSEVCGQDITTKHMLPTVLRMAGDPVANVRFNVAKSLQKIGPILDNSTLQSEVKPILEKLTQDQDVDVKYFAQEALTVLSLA

The test has as its target yellow fluorescent protein-tagged (YFP-tagged) WNK1 (UniProt Q9H4A3). In words: co-IP; HEC1A cells transfected with c4161 (YFP-WNK1) or cYFP for 48 hours; lysis in 50 mM Tris pH 8.0, 400 mM NaCl, 0.1% NP-40, 0.5 mM DTT; YFP captured on anti-GFP resin (YFP nanobody), 1 hour at 4°C; PPP2R1A detected by Western blot. In general terms: In western blotting, separated proteins are transferred to a membrane and probed.

Results are given in words; binding and its absence hold for the method and conditions named. Binding seen in cells or lysates may run through a third protein. A result given as binding can be weak or reduced; the word gives no strength.

For the substance “PPP2R1A, the alpha isoform of the scaffold subunit A of PP2A (from UniProt P30153 1-589)”, the binding result was “binds”.
